Structures can show the parent of a compound that is named as a salt. The list shows a part of the results. Single values are uncertain here, since repeats match poorly.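 ReNCell VM, a human fetal ventral-midbrain neural progenitor line, was differentiated without mitogens. Blinded raters scored images stained for doublecortin (early neurons) or tyrosine hydroxylase (dopaminergic neurons) against untreated wells (0 = no change). Scores were averaged across repeats and both raters, and compounds averaging 2 or more were selected as hits for retesting.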 *1 amine or outer side, *2 acyl side, *3 side chain or, on linkers, in order; H or OH if unused. Where a SMILES comes first, the peptide text is derived from it. Bridges are numbered along the chain shown (N, C = ends). [ ]: non-standard residue; d: D form. The star is where a group is joined. X1 = NC1=N[C@@H]([C@H](N[*:1])C(=O)[*:2])C[C@H](O)N1; ΔAla(Z-3-ureido) = NC(=O)N/C=C(\N)C(=O)O; β3hOrn = NCCC[C@H](N)CC(=O)*; Dap = NC[C@H](N)C(=O)O
Assays:
[1] = system: ReNCell VM; assay: neuronal differentiation score (DCX+ cell fraction vs untreated, manual image score) (score (-3 to 3)); higher = more neuronal differentiation; details: 2 uM, 2 weeks
[2] = system: ReNCell VM; assay: dopaminergic neuron differentiation score (TH+ cell fraction vs untreated, manual image score) (score (0 to 3)); higher = more TH+ dopaminergic neuron differentiation; details: 2 uM, 4 weeks, BDNF 10 ng/ml + GDNF 10 ng/ml

`C=NC(C(=O)NC1C(=O)N2C1SC(C)(C)C2C(=O)O)c1ccccc1` (stereo not drawn) was tested, and the neuronal differentiation score ([1]; library: Spectrum) was inactive: 0 and the “dopaminergic neuron differentiation score” value ([2]; library: Spectrum) was inactive: 0.
For `CO[C@H]1C[C@H](O[C@H]2[C@H](C)[C@@H](O[C@@H]3O[C@H](C)C[C@H](N(C)C)[C@H]3OC(C)=O)[C@@H](C)C[C@@]3(CO3)C(=O)[C@H](C)[C@@H](OC(C)=O)[C@@H](C)[C@@H](C)OC(=O)[C@@H]2C)O[C@@H](C)[C@@H]1OC(C)=O`, the neuronal differentiation score ([1]; library: Spectrum) was inactive: 0 and the “dopaminergic neuron differentiation score” value ([2]; library: Spectrum) was inactive: 0.
`N#C/C(=C\c1ccc(O)c(O)c1)C(=O)NCCCc1ccccc1` [Tyrphostin AG 555] was tested, and the neuronal differentiation score ([1]; library: LOPAC) was inactive: 0 and the “dopaminergic neuron differentiation score” value ([2]; library: LOPAC) was inactive: 1.
With `C[C@H](CCC(=O)NCCS(=O)(=O)O)[C@H]1CC[C@H]2[C@@H]3[C@H](O)C[C@@H]4C[C@H](O)CC[C@]4(C)[C@H]3C[C@H](O)[C@]12C` [Sodium Taurocholate hydrate] the neuronal differentiation score ([1]; library: LOPAC) was inactive: 1 and the “dopaminergic neuron differentiation score” value ([2]; library: LOPAC) was inactive: 0.
For `CN1CCCCC1CCN1c2ccccc2Sc2ccc([S+](C)[O-])cc21` (stereo not drawn) [Mesoridazine besylate], the neuronal differentiation score ([1]; library: Prestwick) was inactive: 0 and the “dopaminergic neuron differentiation score” value ([2]; library: Prestwick) was inactive: 0.
`CC(=O)O[C@H]1C[C@@H](OC(C)=O)C(C)(C)[C@@H]2C[C@@H](OC(C)=O)[C@@]3(C)C4=CC(=O)O[C@@H](c5ccoc5)[C@]4(C)CC[C@@H]3[C@@]12C` was tested, and the neuronal differentiation score ([1]; library: Spectrum) was inactive: 0 and the “dopaminergic neuron differentiation score” value ([2]; library: Spectrum) was inactive: 0.
With `c1ccc2c3c([nH]c2c1)C1C2CCC(C4CCCNC42)N1CC3` (stereo not drawn) [Nitrarine dihydrochloride] the neuronal differentiation score ([1]; library: Phytochemical) was inactive: 0 and the “dopaminergic neuron differentiation score” value ([2]; library: Phytochemical) was inactive: 0.
`c1ccc2oc(C3=NCCN3)cc2c1` [2-BFI hydrochloride] was tested, and the neuronal differentiation score ([1]; library: Tocriscreen) was inactive: 0 and the “dopaminergic neuron differentiation score” value ([2]; library: Tocriscreen) was inactive: 0.
In the case of `Cc1ccc(CC2(O)CCN(CCOc3ccc(O)cc3)CC2)cc1`, the neuronal differentiation score ([1]; library: Tocriscreen) is reported as inactive: 0 and the “dopaminergic neuron differentiation score” value ([2]; library: Tocriscreen) is reported as inactive: 0.
`CC1(C)[C@@H](O[C@H]2O[C@H](C(=O)O)[C@@H](O)[C@H](O)[C@H]2O[C@@H]2O[C@H](C(=O)O)[C@@H](O)[C@H](O)[C@H]2O)CC[C@]2(C)[C@H]3C(=O)C=C4[C@@H]5C[C@@](C)(C(=O)O)CC[C@]5(C)CC[C@@]4(C)[C@]3(C)CC[C@@H]12` was tested, and the neuronal differentiation score ([1]; library: Spectrum) was inactive: 0 and the “dopaminergic neuron differentiation score” value ([2]; library: Spectrum) was inactive: 0.
For `CC[C@H](c1ccc(O)cc1)[C@@H](CC)c1ccc(O)cc1` [Hexestrol], the neuronal differentiation score ([1]; library: Prestwick) was inactive: 0 and the “dopaminergic neuron differentiation score” value ([2]; library: Prestwick) was inactive: 0.
`Cc1nc2n(c(=O)c1CCN1CCC(c3noc4cc(F)ccc34)CC1)CCCC2` [Risperidone] was tested, and the neuronal differentiation score ([1]; library: Prestwick) was inactive: 1 and the “dopaminergic neuron differentiation score” value ([2]; library: Prestwick) was inactive: 0.
For `CC(C)(O/N=C(\C(=O)N[C@@H]1C(=O)N2C(C(=O)[O-])=C(C[n+]3ccccc3)CS[C@H]12)c1csc(N)n1)C(=O)O` [Ceftazidime pentahydrate], the neuronal differentiation score ([1]; library: Prestwick) was inactive: 0 and the “dopaminergic neuron differentiation score” value ([2]; library: Prestwick) was inactive: 0.
In the case of `O=C([O-])c1ccccc1O.[Na+]`, the neuronal differentiation score ([1]; library: Spectrum) is reported as inactive: 0 and the “dopaminergic neuron differentiation score” value ([2]; library: Spectrum) is reported as inactive: 0.
`CN(C)C(=O)n1nnnc1Cc1ccc(-c2ccccc2)cc1` was tested, and the neuronal differentiation score ([1]; library: Tocriscreen) was inactive: 0 and the “dopaminergic neuron differentiation score” value ([2]; library: Tocriscreen) was inactive: 0.
In the case of `CCCCOc1cc(C(=O)OCCN(CC)CC)ccc1N` [Benoxinate hydrochloride], the neuronal differentiation score ([1]; library: Prestwick) is reported as inactive: 1 and the “dopaminergic neuron differentiation score” value ([2]; library: Prestwick) is reported as inactive: 0.
In the case of `CCCCN(CCCC)CCC(O)c1cc2c(Cl)cc(Cl)cc2c2cc(C(F)(F)F)ccc12` (stereo not drawn) [Halofantrine hydrochloride], the neuronal differentiation score ([1]; library: Prestwick) is reported as inactive: 0 and the “dopaminergic neuron differentiation score” value ([2]; library: Prestwick) is reported as inactive: 0.
With `CCCNC(=O)N1N=C(c2ccc(N)cc2)c2cc3c(cc2C1C)OCO3` (stereo not drawn) the neuronal differentiation score ([1]; library: Tocriscreen) was inactive: 0 and the “dopaminergic neuron differentiation score” value ([2]; library: Tocriscreen) was inactive: 0.
In the case of `COc1ccc2c(c1OC)C(=O)O[C@@H]2[C@H]1c2c(cc3c(c2OC)OCO3)CCN1C` [Noscapine], the neuronal differentiation score ([1]; library: Phytochemical) is reported as inactive: 0 and the “dopaminergic neuron differentiation score” value ([2]; library: Phytochemical) is reported as inactive: 0.
In the case of `O=C(C=Cc1ccccc1)NC(NC(=S)Nc1ccc(Cl)cc1)C(Cl)(Cl)Cl` (stereo not drawn), the neuronal differentiation score ([1]; library: Tocriscreen) is reported as inactive: 0 and the “dopaminergic neuron differentiation score” value ([2]; library: Tocriscreen) is reported as inactive: 0.
With `Nc1ccc(S(=O)(=O)Nc2ncccn2)cc1` [Sulfadiazine] the neuronal differentiation score ([1]; library: Prestwick) was inactive: 0 and the “dopaminergic neuron differentiation score” value ([2]; library: Prestwick) was inactive: 0.
`CCOc1cc(NC(C)=O)ccc1C(=O)OC` was tested, and the neuronal differentiation score ([1]; library: Spectrum) was inactive: 0 and the “dopaminergic neuron differentiation score” value ([2]; library: Spectrum) was inactive: 0.
For `Cc1cc2nc3c(=O)[nH]c(=O)nc-3n(CC(O)C(O)C(O)CO)c2cc1N(C)C` (stereo not drawn) [Roseoflavin], the neuronal differentiation score ([1]; library: Phytochemical) was inactive: 0 and the “dopaminergic neuron differentiation score” value ([2]; library: Phytochemical) was inactive: 0.
In the case of `C=CCc1cccc(/C=N/NC(=O)CN2CCN(Cc3ccccc3)CC2)c1O`, the neuronal differentiation score ([1]; library: Tocriscreen) is reported as inactive: 0 and the “dopaminergic neuron differentiation score” value ([2]; library: Tocriscreen) is reported as inactive: 0.
In the case of `COc1cc(C(=O)NCCCCCC(=O)O)cc(OC)c1OC`, the neuronal differentiation score ([1]; library: Spectrum) is reported as inactive: 0 and the “dopaminergic neuron differentiation score” value ([2]; library: Spectrum) is reported as inactive: 0.
For `CC1CC(OC(=O)C(O)c2ccccc2)CC(C)(C)C1` (stereo not drawn), the neuronal differentiation score ([1]; library: Spectrum) was inactive: 0 and the “dopaminergic neuron differentiation score” value ([2]; library: Spectrum) was inactive: 1.
For `CC(C)NC(=N)NC(=N)Nc1ccc(Cl)cc1` [Proguanil hydrochloride], the neuronal differentiation score ([1]; library: Prestwick) was inactive: 0 and the “dopaminergic neuron differentiation score” value ([2]; library: Prestwick) was inactive: 0.
In the case of `CC(C)(Oc1ccc(C2CC2(Cl)Cl)cc1)C(=O)O` (stereo not drawn), the neuronal differentiation score ([1]; library: Spectrum) is reported as inactive: 0 and the “dopaminergic neuron differentiation score” value ([2]; library: Spectrum) is reported as inactive: 0.
`CNCC(O)c1ccc(OC(=O)C(C)(C)C)c(OC(=O)C(C)(C)C)c1` (stereo not drawn) [Dipivefrin hydrochloride] was tested, and the neuronal differentiation score ([1]; library: Prestwick) was inactive: 0 and the “dopaminergic neuron differentiation score” value ([2]; library: Prestwick) was inactive: 0.
With `COC(=O)[C@@H]1[C@H]2C[C@H]3c4[nH]c5ccccc5c4CCN3C[C@@H]2CC[C@@H]1O` the neuronal differentiation score ([1]; library: Spectrum) was inactive: -1 and the “dopaminergic neuron differentiation score” value ([2]; library: Spectrum) was inactive: 0.
`CC(C)(C)NC[C@H](O)COc1nsnc1N1CCOCC1` [(S)-Timolol maleate] was tested, and the neuronal differentiation score ([1]; library: Tocriscreen) was inactive: 0 and the “dopaminergic neuron differentiation score” value ([2]; library: Tocriscreen) was inactive: 0.
`Cc1cn([C@H]2C[C@H](N=[N+]=[N-])[C@@H](CO)O2)c(=O)[nH]c1=O` was tested, and the neuronal differentiation score ([1]; library: Spectrum) was inactive: 0 and the “dopaminergic neuron differentiation score” value ([2]; library: Spectrum) was inactive: 0.
With `c1cc(CN2CCCCC2)cc(OCCCNc2nc3ccccc3s2)c1` the neuronal differentiation score ([1]; library: LOPAC) was active: 2 and the “dopaminergic neuron differentiation score” value ([2]; library: LOPAC) was inactive: 0.
`NCCC[C@H](N)CC(=O)N[C@H]1CNC(=O)[C@H]([C@H]2C[C@H](O)NC(N)=N2)NC(=O)/C(=C/NC(N)=O)NC(=O)[C@H](CO)NC(=O)[C@H](CO)NC1=O` (β3hOrn-[Dap]SS[ΔAla(Z-3-ureido)][X1]; lactam 1-C) was tested, and the neuronal differentiation score ([1]; library: Spectrum) was inactive: 0 and the “dopaminergic neuron differentiation score” value ([2]; library: Spectrum) was inactive: 0.
